Source: the supplement of paper PMC5949888
Most values lie at the floor of the assay. Slopes are relative: functional sequences can read slightly below zero.

test system: Saccharomyces cerevisiae PS128 hsf1 delta, HSF1(1-493) fusion; test: growth estimate (transactivation domain function in HSF1 fusion, heat-shock survival) (a.u. (slope of normalised read count over time)); higher = stronger growth at 37°C, i.e. more transactivation activity; conditions: library: random library
Method: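 Random 60-nt DNA library encoding peptides of up to 20 aa, fused to the C-terminus of yeast HSF1 residues 1-493 (C-terminal TAD deleted) and expressed from the native HSF1 promoter on a CEN plasmid in hsf1-deleted S. cerevisiae PS128. Cells were selected at 37°C on -trp 5-FOA plates for 0, 2, 4, 6 and 8 days and amplicons were sequenced. Growth estimate is the slope of a robust linear fit of total-sum-normalised read counts (normalised to the first time point) over time, using at least 2 replicates. Sequences are classed functional (TAD activity) above a threshold of -0.13, set from stop-codon control sequences.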

Substance	growth estimate
MFI	< -0.25
SGTAIRKPAR	< -0.25
AAGLSDCINKSFMS	< -0.25
RGIHFLIQSTGVAAWERGAT	-0.236
RIRLQHDKGRACRLMGGALR	< -0.25
GLRLQL	< -0.25
LLSDVTGRLLARMTKRTSLG	-0.245
GRGPMRLEPTPCTQFICVAQ	< -0.25
LPKVVGRNYTRILYSLKTPA	< -0.25
YKQGADKKFAYPMY	< -0.25
VEVYSNPTGFILQAILSDAP	< -0.25
WLMRQM	< -0.25
PQGELEVGVYGFASL	< -0.25
SVLHGNRTFQILGLSSP	< -0.25
MPCPLTATTSTGLGTPTVAQ	< -0.25
PALAGPRWVTARASGTSR	< -0.25
GTPAGGD	< -0.25
FNTSGPLSSLWSL	-0.236
RVFKGYGLT	< -0.25
EHQR	< -0.25
SMEYYASR	< -0.25
FVKSRNERASSFHLTDRACN	< -0.25
NISRPVFAKRIVRSHRTLFA	< -0.25
SGRQTFLVKRDSNQDSA	< -0.253

Substance	growth estimate
GSGG	< -0.25
NHLVQNCSQSDIPLFGLNLS	< -0.25
HGMVSKEAV	< -0.25
SPHPLGKWN	< -0.25
PNGGEGVKHEVSVD	< -0.25
SHMIRGAYAIHPNNQLALPC	< -0.25
IRPA	< -0.25
RDVMRSNFLKCGTTNRVG	< -0.25
WYLSVTAYRIHAGNEEFVPS	< -0.25
SGTGIRFASRVWSPYGSVVN	< -0.25
KIAG	< -0.25
LGLIKSAFR	< -0.25
VFLDS	< -0.25
VIQV	< -0.25
FSRDFFVA	< -0.25
GPQTWLSFGLRDYGGSSDIL	< -0.25
VGQFWSGYISAKPLCMFIRC	< -0.25
LLPGGT	< -0.25
VRRLSMCSTGLPMRGPYHIV	< -0.25
RKCHSAYNLRCVRLSCLTLW	< -0.25
WEDGMFPCPMDNV	-0.246
SFRSKAP	< -0.25
QLHSPRRAVA	< -0.25
PPPACWNSQLSHMNQYKTSL	-0.231

Shown with each value named: entries from further up.
VRRLSMCSTGLPMRGPYHIV
  growth estimate = < -0.25
RKCHSAYNLRCVRLSCLTLW
  growth estimate = < -0.25
WEDGMFPCPMDNV
  growth estimate = -0.246
SFRSKAP
  growth estimate = < -0.25

The list continues:

Substance	growth estimate
ASAHLWPRRNSVVGWCRDAR	< -0.25
EWIVHASPGGAVNTGLGVKL	-0.245
TRGVSRDRMHGKISGSQIRR	< -0.25
AKSTLYCRYVRVVYKIPPRA	< -0.25
GDRDQGGFCRCTRCVECSSL	< -0.25
ARQVVSFKSNGVAGRRPGGN	< -0.25
RLY	-0.245
VPSRRYVMRHRWITEIPIPT	< -0.25
IQTLLWAAHYRRCP	< -0.25
LSQWVWLVSLTR	< -0.25
GTLWNEREGRGRFGHSTKSR	-0.243
PRVKGNGSMCRMTEM	< -0.25
LPCCKVPPKLVGYRRSFTGR	< -0.25
GNGNHGGG	< -0.25
KKL	< -0.25
AQDYRGKWRVE	< -0.25
ESSRMVDSEGLLRPRFGFRC	< -0.25
LRTLILHVGACPGMGKPSLV	< -0.25
LGGCIYMPGSFKTRMGERR	0.066
VRVHKTGQW	< -0.25
NHWSSPSTQSW	< -0.25
LRKDAIQPF	< -0.25
VNTTGVSGGF	< -0.25
QATLALRGLDFRSSECLSRP	< -0.25

Substance	growth estimate
RCVR	< -0.25
DTAQLLNVIDLYRGCRRNPY	< -0.25
VPKWVPLHSG	< -0.25
IAIYS	< -0.25
PTDKSELV	-0.23
TSYGKVSG	< -0.25
FTGINVSYARQALLWVDAQY	< -0.25
GPSQLRGRGSCRDFTWWDAS	< -0.25
YGLAVCGDLQIELMVLLRIS	< -0.25
DNHRTGYGIPIYQGIGQTG	-0.25
NFGGLISSRK	< -0.25
RRRSRREGRYALFASNTSKF	-0.198
TGSGCVLIQMVE	< -0.25
AFI	< -0.25
TVPRVIEFCNPD	-0.183
ACKKA	< -0.25
RVYRYNPTVERVSESPVR	< -0.25
PGPSLEVLAQ	< -0.25
RLNRTRAL	< -0.25
QFVPCVARTGAFKTYTTPSS	< -0.25
VSWILFTYACNGQKS	< -0.25
RWTICHSRYSEPAQRVGLTA	< -0.25
HVGGVSDIRLGVPLVIGLQC	< -0.25
EKVERT	< -0.25
